# Measured values as given in PubChem BioAssay AID1347075 (National Center for Advancing Translational Sciences (NCATS), 2019).
# Hit rate of the full screen: of about 400,000 compounds, about 5,500 (1.4%) were called active. Inconclusive means that the source gave no clear call. Such entries were picked first, then a sample of the others. The call rests on the fitted dose curve; in most records, active means well fitted cell-killing curve with a large enough effect; inconclusive means small, poorly fitted or top-dose-only effect, or effect the other way; inactive means flat fitted curve, though single readings scatter. A potency beside an inconclusive call is a rough fit, not a confirmed value.
# Experiment: qHTS assay for MDR1-selective chemotherapeutics: Primary screen using the parental adenocarcinoma cell KB-3-1; further: nearly all actives have a fitted effect of over 60% in size
# Settings: KB-3-1 viability, CellTiter-Glo ATP luminescence, 72 h; activity change, negative = cytotoxic: at 46.1 µM (top of the series)
# In short: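 Viability of parental KB-3-1 cells, measured by CellTiter-Glo luminescence, followed a 72 h incubation at 37 °C with pinned compounds in phenol-red-free DMEM containing 10% FBS.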
# On the % scale 0 is the no-effect control and ±100 the full control effect; potency means the concentration at half of the fitted maximal effect.
SMILES,"activity change, negative = cytotoxic",Potency
COc1ccc(-c2cc(C(F)(F)F)c(C#N)c(=O)[nH]2)cc1,inactive: -0.409%,
CCCCn1c(N)c(N(C)C(=O)c2ccccc2Oc2ccccc2)c(=O)[nH]c1=O,inactive: -19.2%,
O=C(NC(=S)N1CCc2ccccc21)c1ccco1,,"inconclusive: 9.2 µM [rising, partial curve, poor fit]"
COC(=O)c1ccc(/C=C/c2c(-c3ccc(OC)cc3)oc3ccc(N4CCOCC4)cc23)cc1,,"inconclusive: 18.4 µM [cytotoxic, single point]"
CC[N+](C)(C)c1ccc(/C=C/c2ccc3ccccc3n2)cc1,,active: 2.91 µM
CCOC(=O)CCN(C(=O)Nc1ccccc1)C1CCCCC1,,"inconclusive: 9.2 µM [rising, single point]"
COc1ccc(OC)c(NC(=O)COc2ccc3c(c2)CCC3)c1,,"inconclusive: 29.1 µM [cytotoxic, partial curve, poor fit]"
CC(=Nc1ccc(C)cc1C)c1sc2ccccc2c1O,,"inconclusive: 20.6 µM [cytotoxic, single point]"
O=C(CCS(=O)(=O)c1ccccc1)N(CCCN1CCOCC1)c1nc2c(F)cccc2s1,,"inconclusive: 29.1 µM [cytotoxic, single point]"
O=S1(=O)c2ccc(Br)cc2N2CCC[C@H]2CN1Cc1ccccc1,,"inconclusive: 2.31 µM [cytotoxic, partial curve, poor fit]"
CCSc1nc2ccccc2c(OCc2ccccc2Cl)c1C(=O)OC,inactive: 2.93%,
COCC1CCN(C(=O)c2cc(COc3cccc4cnccc34)on2)CC1,,"inconclusive: 18.4 µM [cytotoxic, single point]"
COc1cc(C)ccc1OCC(=O)Nc1ccc2c(c1)OCO2,,"inconclusive: 29.1 µM [rising, single point]"
Cc1ccc(NC(=O)c2ccc(NCCCN3CCOCC3)c([N+](=O)[O-])c2)cc1Cl,,active: 8.2 µM
COCCn1c2nc(=O)n(-c3ccccc3)c(=O)c-2nc2ccccc21,,"inconclusive: 29.1 µM [cytotoxic, single point]"
Cc1cc2c(cc1C)N(Cc1ccc(Cl)cc1)C1=NCCCN12,,"inconclusive: 29.1 µM [cytotoxic, single point]"
Cc1ccc(CNC(=O)c2cnc3c(-c4ccc(F)cc4)c(C)nn3c2C)o1,,"inconclusive: 20.6 µM [cytotoxic, partial curve, poor fit]"
CC(C)c1ccccc1-n1c(SCC(=O)N2CCN(c3ccccc3)CC2)nnc1-c1cccnc1,,"inconclusive: 29.1 µM [cytotoxic, single point]"
CCN(C(=O)C1CCN(S(=O)(=O)c2c(C)noc2/C=C/c2ccc(C)cc2)CC1)c1cccc(C)c1,inactive: 0.822%,
C=C1CCC[C@]2(C)C[C@H]3OC(=O)C(CN4CC(C)OC(C)C4)[C@H]3C[C@@H]12 (some centres undefined),,"inconclusive: 23.1 µM [cytotoxic, single point]"
COc1ccc(N2CC(C(=O)Nc3nc4ccccc4s3)CC2=O)cc1 (centres undefined),,"inconclusive: 14.6 µM [rising, partial curve, poor fit]"
CN(C(=O)c1cnc(N2CCN(c3ncccn3)CC2)c2ccccc12)c1ccc(Cl)cc1,,"inconclusive: 29.1 µM [cytotoxic, single point]"

# 2 entries picked at random from those above:
SMILES,"activity change, negative = cytotoxic",Potency
CC[N+](C)(C)c1ccc(/C=C/c2ccc3ccccc3n2)cc1,,active: 2.91 µM
C=C1CCC[C@]2(C)C[C@H]3OC(=O)C(CN4CC(C)OC(C)C4)[C@H]3C[C@@H]12 (some centres undefined),,"inconclusive: 23.1 µM [cytotoxic, single point]"

# More records.

SMILES,"activity change, negative = cytotoxic",Potency
O=C(CCN1CCOCC1)N/N=C/c1cc(Br)cc(Br)c1O,,"inconclusive: 18.4 µM [cytotoxic, partial curve, poor fit]"
CCOc1ccc(CN(C)C(=O)c2ccc3c(c2)NC(=O)C(C)S3)cc1OC (centres undefined),,"inconclusive: 16.4 µM [cytotoxic, partial curve, poor fit]"
O=C(COC(=O)c1ccccc1C(=O)c1ccc(Cl)cc1)NCCc1ccccc1,,"inconclusive: 20.6 µM [rising, partial curve, poor fit]"
COc1ccc(CCNC(=O)C2CCCN(c3ncnc4c3nc3n4CCCCC3)C2)c(OC)c1 (centres undefined),inconclusive: -4.72%,
O=C(Nc1nc2ccccc2s1)c1cc(-c2ccco2)nc2ccccc12,,"inconclusive: 29.1 µM [cytotoxic, single point]"
CCC(c1nnnn1Cc1ccc(OC)cc1)N(CCCO)Cc1cc2cc3c(cc2[nH]c1=O)OCO3 (centres undefined),inactive: 16.3%,
Cc1cc(N2CCN(S(=O)(=O)c3ccc(C)c(C)c3)CC2)c2ccccc2n1,,"inconclusive: 23.1 µM [cytotoxic, single point]"
Cc1cccc(NC(=S)Nc2cccc(C)n2)n1,inactive: 21.6%,
Cc1cc(-c2ccccc2)nc2oc(C(=O)NN)c(N)c12,inactive: 2.15%,
O=C(Nc1ncccn1)c1ccc([N+](=O)[O-])o1,,"inconclusive: 18.4 µM [cytotoxic, single point]"
CCCNC(=O)C(=O)NCC(c1ccc2c(c1)OCO2)N1CCN(c2ccc(F)cc2)CC1 (centres undefined),inactive: 3.3%,
COC(=O)c1ccc(/C=C/C(=O)c2ccc(OC)c(OC)c2)cc1,,"inconclusive: 29.1 µM [cytotoxic, single point]"
CCCCCC(=O)N1C[C@H](O)[C@@H](n2cc(-c3ccc(F)cc3)nn2)C[C@@H]1c1ccc(OC)cc1,,"inconclusive: 18.4 µM [cytotoxic, single point]"
CCOc1cc(/C=C(/C#N)C(=O)Nc2ccc(O)cc2)cc(Br)c1O,,active: 1.03 µM
CC(=O)NC1=C(C#N)C(c2ccccc2)c2c(ccc3ccccc23)O1 (centres undefined),,active: 18.4 µM
CCOc1ccc(NC(=S)NC(=O)/C=C/c2ccco2)cc1,,"inconclusive: 18.4 µM [cytotoxic, partial curve, poor fit]"
COC(=O)c1cccc(NC(=O)CSc2nnc(-c3ccco3)o2)c1,inactive: 22.1%,
Cc1cc(C)n(-c2nc3ccccc3nc2N2CCN(C(=O)c3ccc(Cl)cc3)CC2)n1,inactive: -15.5%,
O=C(Cc1ccc(OCCc2ccccc2)cc1)NO,inactive: 0%,
Cc1ccc(-c2ccc(OC(=O)c3ccc(=O)[nH]c3)c(C)c2)cc1,inactive: -12.1%,
CCC(=O)Oc1ccc(C(=O)Nc2ccc3c(c2)C(=O)N(C2CCCCC2)C3=O)cc1,,"inconclusive: 18.4 µM [cytotoxic, partial curve]"
O=C(NCC1CCN(Cc2ccccc2F)CC1)Nc1ccc(F)c(Cl)c1,inactive: -20.9%,
